Reference: PubChem BioAssay AID1259415 (National Center for Advancing Translational Sciences (NCATS), 2018)
Values joined by “and” are separate entries in the source; they are usually repeats but may differ in a detail not shown here. Equal values may be shown once. Hit rate of the full screen: of about 410,000 compounds, about 18,000 (4.4%) were called active. Inconclusive means that the source gave no clear call. Such entries were picked first, then a sample of the others. No stated cut-off is given here; in the data, active means activity change below about -60%; inconclusive means no clear call, values can overlap the other calls; inactive means above about -39%. Some compounds were tested as several samples or in several runs, with calls that do not always agree.

Assay: qHTS Assay for inhibitors of the human cytomegalovirus (HCMV)
Conditions: HFF cells, HCMV-luciferase reporter, 72 h; at 57.5 µM; stronger effect = lower value
Procedure, shortened: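 Cell-based, HFFs, 1000 cells/well, 16 h 37C; cpds in DMSO + HCMV-luc, MOI 1 PFU/cell; 72 h 37C; OneGlo luminescence after 5 min RT; norm. to buffer vs Salinomycin 10uM.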
On the % scale 0 is the no-effect control and ±100 the full control effect.

Row | Compound | activity change, negative = inhibition
1 | O=C1c2cccnc2C(Nc2ccc(Cl)cc2)N1Cc1cccs1 (stereo unspecified) | active: -64.7%
2 | CN(C)CCN(C(=O)c1ccc2ccccc2c1)c1nc2cc3c(cc2s1)OCCO3 | inactive: 97.1%
3 | Brc1ccc(CSc2nnc(-c3cccnc3)o2)cc1 | active: -68.3%
4 | Cc1cccc(CCNC(=O)C2CCN(c3ncnc4c3nc3n4CCCCC3)CC2)c1 | inconclusive: -50.7%
5 | CC1CCCN(c2ccc(C(=O)NCc3cccs3)cn2)C1 (stereo unspecified) | inactive: -1.68%
6 | O=C(O[C@H]1CC[C@@]23CCCN2C(=O)CCC[C@H]3[C@H]1Cc1ccccc1)N1CCN(c2ccccc2)CC1 | inactive: 2.67%
7 | COc1ccc(CCNC(=S)NCCc2c[nH]c3ccccc23)cc1 | inconclusive: -42.4%
8 | CCc1cccc(CC)c1NC(=O)C1CCN(C(=O)c2ccco2)CC1 | inactive: -1.59%
9 | COc1ccc(NC(=O)COn2nnc3ccc(Cl)cc32)cc1OC | inconclusive: -56.4%
10 | Cc1ccc(C)c(NC(=S)N2CCC(C(=O)c3ccc(F)cc3)CC2)c1 | inactive: 56.5%
11 | COc1ccc(C(CNC(=O)c2ccc(OCc3cscn3)cc2)N2CCCC2)cc1 (stereo unspecified) | inconclusive: -42%
12 | COC(=O)c1sc2nc(CN3CCN(c4ccc(OC)cc4)CC3)[nH]c(=O)c2c1C | active: -79.9%
13 | COc1ccc(N(C(=O)/C=C/c2ccc(OC)c(OC)c2)C2=CC3CCC(C2)N3C)cc1 (stereo unspecified) | inconclusive: -50.8%
14 | OC[C@@H]1CN(Cc2ccc(F)cc2)C[C@H](n2cnc3c(Nc4ccccc4)ncnc32)O1 | inconclusive: -56.3%
15 | O=C(Cc1cccc(NC(=O)C2CCN(C(=O)C3CC3)CC2)c1)Nc1cccc(C(=O)N2CCCC2)c1 | inconclusive: -48.4%
16 | CCSc1nnc(NC(=O)C(C(F)(F)F)C(F)(F)F)s1 | inactive: -1.57%
17 | CN1CCC(OC2c3ccccc3CCc3ccccc32)CC1 | inconclusive: -41.2%
18 | CCN(CC1CCCO1)C(=O)C1CCN(C2CCN(Cc3ccccc3C)CC2)CC1 (stereo unspecified) | inactive: -21.1%
19 | CCC(C)N1C(=O)N(c2cccc(Cl)c2)C(C)(O)CC1(C)C (stereo unspecified) | inconclusive: -52.6%
20 | CCC(C)(C)n1nnnc1CN(Cc1cccs1)Cc1cc2cc(OC)ccc2[nH]c1=O | inconclusive: -59.7%
21 | COc1ccc([C@H]2CC(=O)C=C(c3cc(F)ccc3F)C2)cc1OC | inactive: -2.81%
22 | Cc1nn(Cc2cccc(Oc3ccccc3)c2)c(C)c1NC(=O)NC12CC3CC(CC(C3)C1)C2 | inconclusive: -41.3%

Row | Compound | activity change, negative = inhibition
23 | COC(=O)CC(NC(=S)NC(=O)c1ccccc1)c1ccc(Br)cc1 (stereo unspecified) | inconclusive: -46.4%
24 | Cc1ccc(S(=O)(=O)Nc2nc(CN3CCOCC3)nc3sc(C)c(C)c23)cc1 | inconclusive: -57.3%
25 | O=C(CSc1nc2cc(Cl)ccc2o1)NCCc1ccccc1 | inconclusive: -40.4%
26 | S=C(NCCc1ccccc1)NCc1cccs1 | inactive: -23.2%
27 | O=C(CSc1ccc(Cl)cc1)Nc1cccc(-c2nnc(-c3ccco3)o2)c1 | inactive: 5.85%
28 | O=C(c1ccc2[nH]c(=O)c(=O)[nH]c2c1)N1CCc2ccccc21 | inactive: 34.4%
29 | Cc1ccc(-n2ncc3c2CC(C)(C)CC3NC(=O)CCc2cnn(C)c2)cc1 (stereo unspecified) | inconclusive: -54%
30 | COc1ccc(-n2ccn3c(CCC(=O)N4CCN(c5cccc(C)c5C)CC4)nnc3c2=O)cc1 | inconclusive: -44.4%
31 | COc1ccc(CCNC(=O)c2cnc3sc(N4CCOCC4)nn3c2=O)cc1 | inactive: 2.17%
32 | O=C(Cc1cnc2ncnn2c1)N1CCc2c([nH]c3ccccc23)C1c1ccccn1 (stereo unspecified) | inconclusive: -52.6%
33 | CCc1nc(NCC2CC2)c2nnn(Cc3ccccc3)c2n1 | inactive: 2.23%
34 | CN(NC(=O)c1ccccc1F)c1nc(C(F)(F)F)nc2ccccc12 | active: -62.6%
35 | COc1cc2nc(NC(=O)c3ccc(S(=O)(=O)N4CCc5ccccc54)cc3)sc2cc1OC | active: -71.8%
36 | NC(CS(=O)O)C(=O)O (stereo unspecified) | inconclusive: -40.6%
37 | CSc1n[nH]c(=S)n1N | inconclusive: -40.7%
38 | COc1cccc(NC(=O)c2ccc(CN3CCN(c4ccccc4)CC3)cc2)c1 | active: -67.3%
39 | CCCCNC(=O)COC(=O)c1ccc(NC(C)=O)cc1 | inconclusive: -45.6%
40 | CCOC(=O)CSc1nc2sc(C)c(C)c2c(=O)[nH]1 | inactive: -13.8%
41 | N#C/C(=C/c1ccc2c(c1)OCO2)C(=O)Nc1ccc(O)cc1 | inconclusive: -58.1%
42 | O=C(NCCCN1CCOCC1)c1sc2ccccc2c1Cl | inactive: 18.1%
43 | COc1cc(-c2cc(NC=O)c3ncc(-c4ccccc4)n3c2)cc(OC)c1OC | inactive: 194%
44 | O=C(CSc1ncc(-c2ccccc2)[nH]1)Nc1cccc(Br)c1 | active: -66.2%

Row | Compound | activity change, negative = inhibition
45 | COc1cccc(CC2(CO)CCCN(Cc3ccc(-c4ccco4)cc3)C2)c1 (stereo unspecified) | inconclusive: -42.5%
46 | COc1cccc(CN2C(=O)C(C)N(C(=O)c3ccccc3)c3ccccc32)c1 (stereo unspecified) | active: -71.4%
47 | O=C(Cn1cc(C(=O)c2ccco2)c2ccccc21)Nc1ccccc1 | inconclusive: -41.3%
48 | O=C(Cn1cccc1C(=O)c1ccccc1)NCCc1ccc(Cl)cc1 | inconclusive: -47%
49 | NS(=O)(=O)c1ccc(NC(=S)NC2CCCC2)cc1 | inactive: 18.7%
50 | CC1=C(C(=O)N(C(C)C)C(C)C)CC(CC(=O)NCCCCc2ccccc2)C(=O)N1Cc1ccc(C(C)(C)C)cc1 (stereo unspecified) | active: -105%
51 | CCOc1ccc(-n2c(N)c(C(=O)NCC3CCCO3)sc2=S)cc1 (stereo unspecified) | inconclusive: -40.4%
52 | CC1CCCN(C(=S)SCC(=O)c2cc(Br)cc(Br)c2O)C1 (stereo unspecified) | inactive: 30.1%
53 | COc1ccc(-n2c(C)c3c(OC)cccc(=O)c3c2C)cc1 | inactive: -37.6%
54 | O=C(Nc1ccc(S(=O)(=O)N2CCCCCC2)cc1)c1ccc(Br)o1 | inconclusive: -44.4%
55 | CCn1c(Cc2ccccc2)nnc1SCC(=O)c1c(N)n(C2CC2)c(=O)[nH]c1=O | inactive: 0%
56 | Cc1cc(-c2ccccc2)nnc1NCCN1CCOCC1 | inconclusive: -57.7%
57 | CC(C)Nc1nc(Cl)nc(NN(C)c2nc(N(C)C)nc(N(C)C)n2)n1 | inconclusive: -56%
58 | Cc1cc(C(=O)COC(=O)c2ccc(Br)o2)c(C)n1C | inconclusive: -47.3%
59 | O=C(Nc1cccc(Cl)c1)Nc1cccc(Cl)c1 | inconclusive: -56.7%
60 | O=C(c1ccco1)N1CCN(C2CC(=O)N(c3ccc(F)c(Cl)c3)C2=O)CC1 (stereo unspecified) | inactive: -2.75%
61 | O=C(Cn1cc(C(F)(F)F)ccc1=O)Nc1cccc(S(=O)(=O)N2CCOCC2)c1 | inconclusive: -57%
62 | CC(=O)N1CCc2c(sc3c2c(=O)n(-c2ccccc2Cl)c(=O)n3Cc2cccc(C)c2)C1 | inconclusive: -53%
63 | CCOC(=O)C(CCC(C)=O)C(=O)c1ccccc1 (stereo unspecified) | inconclusive: -41.4%
64 | Cc1ccc(NS(=O)(=O)c2cc(NC(=O)c3ccc4c(c3)NC(=O)CS4)ccc2C)c(C)c1 | inconclusive: -51.5%
65 | CC/C(=C(/CC)c1ccc(O)cc1)c1ccc(O)cc1 | inconclusive: -55.8%
66 | COc1ccc(CNC(=O)c2cc3c(-c4ccccc4F)nn(C)c3s2)cc1 | inactive: -15.6%

Structural class: the entries above containing a CF3 group
Row | Compound | activity change, negative = inhibition
16 | CCSc1nnc(NC(=O)C(C(F)(F)F)C(F)(F)F)s1 | inactive: -1.57%
34 | CN(NC(=O)c1ccccc1F)c1nc(C(F)(F)F)nc2ccccc12 | active: -62.6%
61 | O=C(Cn1cc(C(F)(F)F)ccc1=O)Nc1cccc(S(=O)(=O)N2CCOCC2)c1 | inconclusive: -57%

Additional records follow.

Row | Compound | activity change, negative = inhibition
67 | COc1ccc(Nc2nc(-c3sc(C)nc3C)cs2)cc1 | inconclusive: -51.3%
68 | CCn1nc(NS(=O)(=O)c2ccc([N+](=O)[O-])cc2)c2cc3cccc(C)c3nc21 | inconclusive: -42.3%
69 | CC(=O)N1c2ccc(S(=O)(=O)N3CCC(C(=O)Nc4cccc(C(F)(F)F)c4)CC3)cc2CC1C (stereo unspecified) | active: -89.2%
70 | CC1CCCC(C)N1/N=C/c1c[nH]c2ccc(Br)cc12 (stereo unspecified) | active: -77.8%
71 | CCCCCCCCC(=O)c1c(OC)oc(C=O)cc1=O | inactive: -7.79%
72 | Cc1ccccc1CN(c1ccc(C(=O)Nc2ccccc2C(=O)NCc2ccco2)cc1)S(C)(=O)=O | inconclusive: -44.7%
73 | CCc1ccc(NS(=O)(=O)c2ccc3[nH]cc(C(=O)NCc4ccc(C)cc4)c(=O)c3c2)cc1 | inactive: -2.68%
74 | O=C(O)CSc1nc2c(c(C(F)(F)F)n1)CCCC2 | inactive: -23.1% and active: -96%
75 | Cc1ccc2cc3c(nc2c1)N(c1ccccc1)CC3 | inconclusive: -47.5%
76 | CCc1ccc(NC(=S)NC2CC3CCCC(C2)N3Cc2ccccc2)cc1 (stereo unspecified) | inconclusive: -48.4%
77 | COc1ccc(NC(=O)CSc2nc3ccccc3c(=O)n2CCCC(=O)NCC2CCCO2)c(OC)c1 (stereo unspecified) | inconclusive: -41%
78 | CC(C)(C)Cc1c(-c2ccc(Br)cc2)nc2ccc(Br)cn12 | inconclusive: -45.8%
79 | COCCNc1nc(N2CCCCC2)c2cnn(C)c2n1 | inactive: -17.7%
80 | O=C(Nc1ccc(Nc2ccccc2)cc1)c1ccc(Cl)cc1 | inconclusive: -42.2%
81 | CCOc1ccc(N(C(C)C(=O)N/N=C(\C)C(C)(C)C)S(C)(=O)=O)cc1 (stereo unspecified) | inconclusive: -48.1%
82 | O=C(c1cc2nc(-c3ccccc3)cc(C(F)(F)F)n2n1)N1CCCC1 | inconclusive: -42.2%
83 | Cc1nn(-c2ccccc2)c(C)c1NC(=O)COc1cc(F)ccc1[N+](=O)[O-] | inconclusive: -43%
84 | C[C@H]1CN([C@@H](C)CO)C(=O)Cc2cc(NC(=O)CCC(F)(F)F)ccc2O[C@H]1CN(C)S(=O)(=O)c1ccc(F)cc1 | active: -99.8%
85 | COc1ccc(NC(=O)CN2C(=O)CCc3cc(S(=O)(=O)N4CCOCC4)ccc32)c(OC)c1 | inactive: 2.65%
86 | Cc1cc(C(C)(C)C)oc1C(=O)N1CCN(C(=O)c2oc(C(C)(C)C)cc2C)CC1 | active: -66.5%
